Results taken from the supplement of paper PMC3334620.
Over roughly 33,000 sequences, “E-score (-0.5 to 0.5)” has its median near -0.016; the highest 2% begin near 0.3. Some of the results follow.

molecular target: T1, Yer184c (UniProt P39961); assay: PBM E-score (8-mer binding enrichment) (E-score (-0.5 to 0.5)); higher = stronger / more preferred TF binding; settings: protein concentration: 100 nM; construct: GST-full length
T1 sequence: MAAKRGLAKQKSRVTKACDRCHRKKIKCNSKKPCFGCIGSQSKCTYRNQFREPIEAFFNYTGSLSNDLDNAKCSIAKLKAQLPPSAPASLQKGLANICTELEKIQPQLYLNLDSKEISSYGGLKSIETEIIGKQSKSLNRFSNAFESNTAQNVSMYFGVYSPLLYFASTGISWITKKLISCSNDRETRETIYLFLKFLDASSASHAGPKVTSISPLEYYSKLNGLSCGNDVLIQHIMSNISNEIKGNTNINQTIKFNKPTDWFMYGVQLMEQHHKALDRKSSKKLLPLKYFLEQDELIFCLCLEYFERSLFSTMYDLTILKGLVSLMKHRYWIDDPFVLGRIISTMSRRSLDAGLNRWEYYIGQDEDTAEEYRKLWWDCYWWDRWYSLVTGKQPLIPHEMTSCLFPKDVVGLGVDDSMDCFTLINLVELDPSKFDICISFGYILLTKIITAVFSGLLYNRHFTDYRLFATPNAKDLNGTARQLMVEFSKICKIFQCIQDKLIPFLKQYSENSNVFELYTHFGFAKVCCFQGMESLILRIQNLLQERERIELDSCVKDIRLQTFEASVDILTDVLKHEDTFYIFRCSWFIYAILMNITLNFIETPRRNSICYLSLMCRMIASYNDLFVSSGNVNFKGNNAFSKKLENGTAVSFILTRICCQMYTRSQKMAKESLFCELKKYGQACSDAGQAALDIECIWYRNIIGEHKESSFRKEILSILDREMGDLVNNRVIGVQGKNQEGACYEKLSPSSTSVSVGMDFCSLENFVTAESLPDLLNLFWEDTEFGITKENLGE
How it was run: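 Detection of bound protein used fluorescent anti-GST, with scans normalised by masliner. The proteins were GST-tagged yeast transcription factors applied at about 100-200 nM to universal all-10-mer Agilent arrays made double-stranded by primer extension. Each ungapped eight-base word, pooled with its reverse complement, was scored with an E-score from the Universal PBM Analysis Suite.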

Row | Sequence | PBM E-score
1 | CTACAAAA | 0.171
2 | GCAGCTGA | -0.0334
3 | AATCTTTG | 0.108
4 | AGTAAAGA | -0.0721
5 | AATTTATC | 0.29
6 | ACCTGGAC | -0.276
7 | CTAGATAC | 0.118
8 | AATCGGAG | 0.216
9 | CAAGACAA | 0.182
10 | AAAACTAT | 0.158
11 | GAAAGGCC | -0.0612
12 | GGGAACCA | -0.222
13 | CTGGTACA | -0.0797
14 | GGGGACTA | -0.3
15 | CAAAACAG | 0.0555
16 | AACTGTTG | -0.205
17 | GATTCCCC | -0.111
18 | GAAGTCGA | 0.0273
19 | ATGGTTTG | 0.0299
20 | ATAGCAGA | -0.0688
21 | AAGCCGCA | 0.161
22 | AGCCAAGC | -0.117
23 | GCTCTCAA | 0.0851
24 | CTCGTAAG | 0.135
25 | GCATGTAC | -0.15

Row | Sequence | PBM E-score
26 | GGTGAGCA | -0.236
27 | CATAGCAA | -0.0697
28 | GCGGTGGA | 0.00643
29 | AGGCGGAT | -0.0122
30 | CCTTACTC | 0.0738
31 | ATTGCGAC | 0.133
32 | CACTTCTC | -0.119
33 | CGGCTGAG | 0.0887
34 | CTCCCGAG | -0.0219
35 | CGAGTGCA | 0.166
36 | AGCTTATC | 0.0293
37 | CCTAGGCA | -0.163
38 | ACGTTAGC | 0.165
39 | ATGTACTG | -0.021
40 | CAGTAAAC | 0.0257
41 | CTCAGGTA | -0.0384
42 | ACGGCTCC | 0.189
43 | ATTAATAC | 0.21
44 | ACAACGAC | 0.104
45 | GAGGCCTC | 0.0359
46 | ATATTAAA | 0.368
47 | CTTTACGA | -0.0405
48 | CGGTACCA | 0.0778
49 | AAAAAGGA | 0.119
50 | TGTTAAAA | 0.173

Row | Sequence | PBM E-score
51 | CCTGAAGC | -0.222
52 | ACGCAGGC | -0.0161
53 | AAGTCCTG | -0.108
54 | TAAGGTGA | -0.0772
55 | CGAAGTAG | 0.176
56 | ACCCACAG | -0.182
57 | CGCGAATA | 0.0753
58 | CAGACGTC | -0.186
59 | CAGAAATC | 0.0538
60 | CCGTGAAC | 0.152
61 | CGATTTTA | 0.0349
62 | CAGCGGGA | -0.115
63 | AGAAAATC | 0.142
64 | ACGATTTC | 0.171
65 | AGATCGAT | -0.107
66 | ACACACCG | 0.0279
67 | AGTCTCTG | -0.11
68 | ATCAAGTC | -0.0287
69 | AAGAAAAC | 0.141
70 | ATATCGAA | 0.14
71 | ATACGGAC | 0.117
72 | ACGATCTC | 0.0383
73 | AAGGTTCT | -0.0394
74 | CTATGTCC | -0.0749
75 | CCTGGTTC | -0.0462

Row | Sequence | PBM E-score
76 | CGTAATGC | -0.0392
77 | AATACCTA | 0.0562
78 | TCAAGAAA | 0.28
79 | AGAAGCAT | 0.0357
80 | AAAGCGAT | 0.06
81 | CGCTACAG | -0.0307
82 | ATGCTACC | 0.0246
83 | ATTCGATA | -0.00222
84 | GGAAAAAA | 0.304
85 | CAAGACGC | -0.00329
86 | CACCAAGG | -0.204
87 | GAGAAAAA | 0.188
88 | TCCGGTAA | 0.387
89 | GCCGCAAA | 0.239
90 | TATTAGAA | 0.173
91 | ACCCTAAA | 0.0527
92 | AGGAAAAA | 0.168
93 | CCCATGGG | -0.0805
94 | GTATACTA | -0.0915
95 | GCAGGTAC | -0.22
96 | ACCATGGG | -0.206
97 | ATTCTTGC | 0.225
98 | GCTCGGAC | 0.187
99 | CGTCTGCC | -0.0744
100 | GCCGGAAC | 0.403

Row | Sequence | PBM E-score
101 | ACATTTCA | 0.146
102 | AATCCCGA | 0.246
103 | ATAATGCA | -0.0828
104 | ATAGTTCA | 0.189
105 | ACACCCGG | 0.135
106 | AGTTGCAT | 0.105
107 | ACAGCAAA | 0.0742
108 | CGTGGAAA | 0.134
109 | AATATGGG | -0.215
110 | AGAGCATA | -0.077
111 | CGCAGCAC | -0.00665
112 | CTTGCTCA | -0.207
113 | ACATACAT | 0.14
114 | CGTTTAGA | -0.0269
115 | GAGCGCCA | -0.0646
116 | GTAGCAAC | -0.00751
117 | CACGTTGG | -0.214
118 | ACTCCATA | -0.308
119 | ATAGCCGC | 0.0602
120 | CGTCGACC | 0.0515
121 | ACGGCGCG | 0.232
122 | CACCGCAG | -0.166
123 | AACAGGCA | -0.15
124 | GTCACCCA | -0.184
125 | CTTACACA | -0.0671

Numbers 76–123, reprinted for reference:
Row | Sequence | PBM E-score
76 | CGTAATGC | -0.0392
77 | AATACCTA | 0.0562
78 | TCAAGAAA | 0.28
79 | AGAAGCAT | 0.0357
80 | AAAGCGAT | 0.06
81 | CGCTACAG | -0.0307
82 | ATGCTACC | 0.0246
83 | ATTCGATA | -0.00222
84 | GGAAAAAA | 0.304
85 | CAAGACGC | -0.00329
86 | CACCAAGG | -0.204
87 | GAGAAAAA | 0.188
88 | TCCGGTAA | 0.387
89 | GCCGCAAA | 0.239
90 | TATTAGAA | 0.173
91 | ACCCTAAA | 0.0527
92 | AGGAAAAA | 0.168
93 | CCCATGGG | -0.0805
94 | GTATACTA | -0.0915
95 | GCAGGTAC | -0.22
96 | ACCATGGG | -0.206
97 | ATTCTTGC | 0.225
98 | GCTCGGAC | 0.187
99 | CGTCTGCC | -0.0744
100 | GCCGGAAC | 0.403
101 | ACATTTCA | 0.146
102 | AATCCCGA | 0.246
103 | ATAATGCA | -0.0828
104 | ATAGTTCA | 0.189
105 | ACACCCGG | 0.135
106 | AGTTGCAT | 0.105
107 | ACAGCAAA | 0.0742
108 | CGTGGAAA | 0.134
109 | AATATGGG | -0.215
110 | AGAGCATA | -0.077
111 | CGCAGCAC | -0.00665
112 | CTTGCTCA | -0.207
113 | ACATACAT | 0.14
114 | CGTTTAGA | -0.0269
115 | GAGCGCCA | -0.0646
116 | GTAGCAAC | -0.00751
117 | CACGTTGG | -0.214
118 | ACTCCATA | -0.308
119 | ATAGCCGC | 0.0602
120 | CGTCGACC | 0.0515
121 | ACGGCGCG | 0.232
122 | CACCGCAG | -0.166
123 | AACAGGCA | -0.15

Following part.

Row | Sequence | PBM E-score
126 | GTCCACAC | 0.0836
127 | ACTGAGTA | -0.212
128 | GATATATC | 0.266
129 | CTGGAATA | 0.017
130 | AAGACCAG | -0.113
131 | AACTACGC | 0.0355
132 | AAGACTAA | 0.0733
133 | ATGTCACA | 0.157
134 | TGATGGAA | 0.0745
135 | AATGTGAG | -0.0534
136 | GTTTAAAA | 0.162
137 | AGAATGCG | 0.141
138 | AGCAGCCG | 0.197
139 | TCAGCCAA | -0.089
140 | ATCTCGCA | 0.128
141 | ATGTTGGC | -0.0133
142 | AAGTGACC | -0.0785
143 | CGAAGGCA | -0.179
144 | CCTTTGAC | -0.0704
145 | CGCGTCAC | -0.11
146 | CTCTTGGC | -0.189
147 | ATTTCAGG | 0.121
148 | GCCATTGA | 0.0105
149 | GAAGCTGC | -0.197
150 | CCAACTTA | -0.0404

Row | Sequence | PBM E-score
151 | CTATCGTC | -0.213
152 | CTGGCTTC | -0.182
153 | ACGAAAAC | 0.274
154 | AAGCGGCT | 0.197
155 | AAAGTCGT | -0.162
156 | ATCCCAAC | -0.193
157 | CAAAACTG | 0.0604
158 | TATGGGGA | -0.00306
159 | AAGGACGT | -0.0295
160 | ACATGCCG | 0.214
161 | TAGCGCTA | 0.0558
162 | ATCGGTAC | 0.147
163 | ATCATAGA | 0.0803
164 | CGACTGCC | -0.139
165 | ATTAAACG | 0.172
166 | ACAGCTCG | 0.00408
167 | GACCTTCA | -0.119
168 | CTAGTAAA | 0.237
169 | ACAGGCGA | -0.105
170 | GATGTATA | -0.0153
171 | ACTACTCC | 0.1
172 | TCCTGGAA | -0.204
